In article PMC2634843:
These are yes or no findings as the source states them, for the method shown. Binding seen in cells or lysates may run through a third protein. These calls come from enrichment with a bait or labelling near it, and not all partners need be listed. Sequences can lack the tags named with a protein. Values belong to the molecule of their own block, whether it stands above or below them.

Chains of the proteins cited; added tags and fusions are not shown.
UniProt P78527: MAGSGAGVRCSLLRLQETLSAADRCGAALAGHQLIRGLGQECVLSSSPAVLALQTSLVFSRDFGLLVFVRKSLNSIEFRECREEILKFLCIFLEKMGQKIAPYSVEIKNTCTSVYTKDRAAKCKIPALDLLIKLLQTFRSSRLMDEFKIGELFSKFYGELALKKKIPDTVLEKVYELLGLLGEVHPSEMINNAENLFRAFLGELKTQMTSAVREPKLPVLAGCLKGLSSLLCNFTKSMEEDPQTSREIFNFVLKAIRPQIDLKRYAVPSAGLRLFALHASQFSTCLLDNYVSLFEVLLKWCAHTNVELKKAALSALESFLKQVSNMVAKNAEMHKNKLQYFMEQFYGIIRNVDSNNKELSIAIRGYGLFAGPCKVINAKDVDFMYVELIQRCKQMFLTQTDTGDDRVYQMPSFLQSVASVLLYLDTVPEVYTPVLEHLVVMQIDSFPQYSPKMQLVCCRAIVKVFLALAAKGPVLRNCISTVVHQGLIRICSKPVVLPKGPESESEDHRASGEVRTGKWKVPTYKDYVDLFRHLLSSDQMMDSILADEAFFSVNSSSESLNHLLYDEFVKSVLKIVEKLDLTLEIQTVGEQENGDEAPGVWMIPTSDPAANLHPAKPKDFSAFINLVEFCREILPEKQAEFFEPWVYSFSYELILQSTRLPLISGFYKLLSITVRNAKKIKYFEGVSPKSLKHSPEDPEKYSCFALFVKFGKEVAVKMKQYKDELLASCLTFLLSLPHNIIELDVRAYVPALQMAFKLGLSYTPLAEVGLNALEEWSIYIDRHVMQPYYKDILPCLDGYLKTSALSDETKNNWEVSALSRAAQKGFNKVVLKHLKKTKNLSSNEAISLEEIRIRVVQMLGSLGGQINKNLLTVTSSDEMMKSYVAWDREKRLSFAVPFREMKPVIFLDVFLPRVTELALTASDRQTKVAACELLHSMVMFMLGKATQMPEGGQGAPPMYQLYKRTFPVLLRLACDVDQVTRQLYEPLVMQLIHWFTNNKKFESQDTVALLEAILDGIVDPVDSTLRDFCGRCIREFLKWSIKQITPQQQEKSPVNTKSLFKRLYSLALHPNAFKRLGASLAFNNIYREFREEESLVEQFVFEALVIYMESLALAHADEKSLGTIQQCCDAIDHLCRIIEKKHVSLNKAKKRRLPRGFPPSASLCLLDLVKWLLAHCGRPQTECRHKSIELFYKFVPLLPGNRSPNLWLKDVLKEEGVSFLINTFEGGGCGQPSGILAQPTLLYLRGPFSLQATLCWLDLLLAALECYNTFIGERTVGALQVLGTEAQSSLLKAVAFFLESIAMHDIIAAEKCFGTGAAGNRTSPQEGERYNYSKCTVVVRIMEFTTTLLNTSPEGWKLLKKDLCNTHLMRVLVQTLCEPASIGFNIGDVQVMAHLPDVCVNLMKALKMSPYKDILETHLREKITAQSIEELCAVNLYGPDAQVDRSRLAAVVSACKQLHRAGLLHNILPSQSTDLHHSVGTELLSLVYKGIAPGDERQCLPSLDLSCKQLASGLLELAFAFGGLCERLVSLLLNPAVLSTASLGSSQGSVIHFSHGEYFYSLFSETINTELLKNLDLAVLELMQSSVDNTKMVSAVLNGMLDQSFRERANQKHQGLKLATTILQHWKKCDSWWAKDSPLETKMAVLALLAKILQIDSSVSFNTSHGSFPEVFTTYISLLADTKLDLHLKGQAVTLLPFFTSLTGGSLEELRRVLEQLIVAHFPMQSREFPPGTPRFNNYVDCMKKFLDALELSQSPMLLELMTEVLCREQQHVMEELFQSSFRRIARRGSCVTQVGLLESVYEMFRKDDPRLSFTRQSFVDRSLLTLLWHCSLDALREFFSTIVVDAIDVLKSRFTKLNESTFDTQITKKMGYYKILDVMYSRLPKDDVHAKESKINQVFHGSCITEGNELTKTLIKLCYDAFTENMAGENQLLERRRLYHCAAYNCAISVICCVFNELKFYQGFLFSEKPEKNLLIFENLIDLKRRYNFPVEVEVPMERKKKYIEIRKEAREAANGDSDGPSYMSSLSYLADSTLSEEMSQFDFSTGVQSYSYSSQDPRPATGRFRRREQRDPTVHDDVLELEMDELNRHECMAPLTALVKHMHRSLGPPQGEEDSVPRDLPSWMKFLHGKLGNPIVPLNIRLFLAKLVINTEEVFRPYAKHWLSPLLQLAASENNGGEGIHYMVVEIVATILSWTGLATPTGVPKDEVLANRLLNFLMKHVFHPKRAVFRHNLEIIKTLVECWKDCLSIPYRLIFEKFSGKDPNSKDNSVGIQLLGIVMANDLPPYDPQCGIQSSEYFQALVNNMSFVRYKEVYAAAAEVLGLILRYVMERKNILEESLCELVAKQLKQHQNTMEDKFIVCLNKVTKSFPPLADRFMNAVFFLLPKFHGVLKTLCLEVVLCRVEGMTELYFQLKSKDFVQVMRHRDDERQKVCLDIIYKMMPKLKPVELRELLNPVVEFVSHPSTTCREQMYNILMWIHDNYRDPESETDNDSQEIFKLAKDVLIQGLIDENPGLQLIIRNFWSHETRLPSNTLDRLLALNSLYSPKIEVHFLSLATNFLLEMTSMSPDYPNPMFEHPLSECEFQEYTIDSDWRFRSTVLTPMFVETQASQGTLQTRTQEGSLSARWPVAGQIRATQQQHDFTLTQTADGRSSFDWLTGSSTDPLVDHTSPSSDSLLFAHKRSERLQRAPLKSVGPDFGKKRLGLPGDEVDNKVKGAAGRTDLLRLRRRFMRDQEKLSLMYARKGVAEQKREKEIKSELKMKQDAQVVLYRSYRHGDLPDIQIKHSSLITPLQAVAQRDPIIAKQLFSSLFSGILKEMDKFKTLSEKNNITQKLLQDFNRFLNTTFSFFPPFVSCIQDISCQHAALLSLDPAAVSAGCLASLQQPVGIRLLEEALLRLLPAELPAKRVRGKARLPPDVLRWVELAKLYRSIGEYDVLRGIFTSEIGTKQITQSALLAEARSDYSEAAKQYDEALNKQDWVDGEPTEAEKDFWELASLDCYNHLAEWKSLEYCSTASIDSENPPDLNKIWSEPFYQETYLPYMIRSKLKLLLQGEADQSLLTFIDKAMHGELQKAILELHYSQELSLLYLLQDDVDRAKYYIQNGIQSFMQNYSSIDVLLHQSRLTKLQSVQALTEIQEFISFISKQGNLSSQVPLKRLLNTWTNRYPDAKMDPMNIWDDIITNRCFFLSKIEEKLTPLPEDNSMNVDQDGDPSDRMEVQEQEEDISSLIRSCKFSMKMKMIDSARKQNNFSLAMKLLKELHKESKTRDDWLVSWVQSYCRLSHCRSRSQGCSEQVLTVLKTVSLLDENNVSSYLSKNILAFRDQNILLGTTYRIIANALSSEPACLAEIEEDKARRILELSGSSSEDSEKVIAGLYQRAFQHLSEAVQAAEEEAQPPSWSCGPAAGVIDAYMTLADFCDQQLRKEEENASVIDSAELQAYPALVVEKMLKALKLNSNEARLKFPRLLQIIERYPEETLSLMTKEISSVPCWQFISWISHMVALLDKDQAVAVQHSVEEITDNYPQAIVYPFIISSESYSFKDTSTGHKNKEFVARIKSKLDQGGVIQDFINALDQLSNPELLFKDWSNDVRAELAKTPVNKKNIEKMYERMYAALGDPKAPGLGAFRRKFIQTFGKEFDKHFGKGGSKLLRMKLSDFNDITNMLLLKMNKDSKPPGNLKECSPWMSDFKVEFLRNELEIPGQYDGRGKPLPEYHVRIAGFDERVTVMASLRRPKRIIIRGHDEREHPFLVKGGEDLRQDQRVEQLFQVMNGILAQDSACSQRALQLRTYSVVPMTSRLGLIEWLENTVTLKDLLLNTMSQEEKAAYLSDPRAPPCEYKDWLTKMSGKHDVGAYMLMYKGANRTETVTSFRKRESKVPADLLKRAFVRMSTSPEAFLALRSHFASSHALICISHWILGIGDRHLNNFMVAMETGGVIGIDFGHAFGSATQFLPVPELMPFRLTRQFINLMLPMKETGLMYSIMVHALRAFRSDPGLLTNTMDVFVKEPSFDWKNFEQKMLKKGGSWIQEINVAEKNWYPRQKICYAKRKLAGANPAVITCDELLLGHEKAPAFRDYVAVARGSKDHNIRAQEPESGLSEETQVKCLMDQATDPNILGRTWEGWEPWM

Target: T1, FLAG-tagged PP6R1 (human) (UniProt Q9UPN7)
T1 sequence: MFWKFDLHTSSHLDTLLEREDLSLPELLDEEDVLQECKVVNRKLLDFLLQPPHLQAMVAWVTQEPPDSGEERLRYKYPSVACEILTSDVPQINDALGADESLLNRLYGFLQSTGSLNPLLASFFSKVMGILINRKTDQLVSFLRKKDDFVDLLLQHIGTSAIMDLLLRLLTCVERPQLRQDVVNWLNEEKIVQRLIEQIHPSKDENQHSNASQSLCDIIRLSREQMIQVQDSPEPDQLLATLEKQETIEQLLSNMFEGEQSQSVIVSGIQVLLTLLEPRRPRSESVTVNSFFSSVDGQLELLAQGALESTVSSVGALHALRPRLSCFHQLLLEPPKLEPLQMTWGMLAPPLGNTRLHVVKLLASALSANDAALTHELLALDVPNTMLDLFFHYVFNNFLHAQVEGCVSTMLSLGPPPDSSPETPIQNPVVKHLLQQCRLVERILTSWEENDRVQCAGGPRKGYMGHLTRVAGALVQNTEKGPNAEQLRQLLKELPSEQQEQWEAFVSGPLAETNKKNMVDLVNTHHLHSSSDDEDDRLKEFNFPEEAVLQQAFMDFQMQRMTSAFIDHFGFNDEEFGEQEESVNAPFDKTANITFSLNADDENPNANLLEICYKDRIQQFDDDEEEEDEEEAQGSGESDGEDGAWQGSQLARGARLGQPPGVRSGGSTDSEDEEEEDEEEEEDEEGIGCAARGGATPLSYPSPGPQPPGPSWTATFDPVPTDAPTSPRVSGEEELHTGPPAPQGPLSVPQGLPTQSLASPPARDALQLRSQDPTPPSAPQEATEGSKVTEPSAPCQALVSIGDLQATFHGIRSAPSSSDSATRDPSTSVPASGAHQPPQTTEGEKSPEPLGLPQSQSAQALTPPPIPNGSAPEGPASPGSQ
Test: affinity purification with mass spectrometry; immunoprecipitates from a stable 293 cell line expressing low levels of FLAG-tagged PP6R1, analysed by mass spectroscopy

binding: binds
Molecule: DNA-PKcs (DNA-PK catalytic subunit) (from UniProt P78527 1-4128) (enzyme)

binding: binds
B1: PP6c (enzyme, UniProt O00743 1-305)
chain: MAPLDLDKYVEIARLCKYLPENDLKRLCDYVCDLLLEESNVQPVSTPVTVCGDIHGQFYDLCELFRTGGQVPDTNYIFMGDFVDRGYYSLETFTYLLALKAKWPDRITLLRGNHESRQITQVYGFYDECQTKYGNANAWRYCTKVFDMLTVAALIDEQILCVHGGLSPDIKTLDQIRTIERNQEIPHKGAFCDLVWSDPEDVDTWAISPRGAGWLFGAKVTNEFVHINNLKLICRAHQLVHEGYKFMFDEKLVTVWSAPNYCYRCGNIASIMVFKDVNTREPKLFRAVPDSERVIPPRTTTPYFL
